No constants are given. Whether binding was seen depends on the method and setting. Some binding calls cover weakened binding; strength is not graded here.
Biological target: IL-17RA-Fc fusion protein (UniProt Q96F46)
Experiment: FRET or BRET; 1 nM biotinylated IL-17A labeled with 0.67 nM Europium-Streptavidin, 6 nM IL-17RA-Fc labeled with 1 nM Alexa Fluor 647 antibody; 10 mM HEPES pH 7.4, 150 mM NaCl, 0.02% BSA, 0.01% Tween 20; room temperature, 3 h; 665/615 ratio; both purified

The chains behind the UniProt entries cited, without tags or fusion partners. Residues count along the entry.
UniProt Q96F46, residues 33-320: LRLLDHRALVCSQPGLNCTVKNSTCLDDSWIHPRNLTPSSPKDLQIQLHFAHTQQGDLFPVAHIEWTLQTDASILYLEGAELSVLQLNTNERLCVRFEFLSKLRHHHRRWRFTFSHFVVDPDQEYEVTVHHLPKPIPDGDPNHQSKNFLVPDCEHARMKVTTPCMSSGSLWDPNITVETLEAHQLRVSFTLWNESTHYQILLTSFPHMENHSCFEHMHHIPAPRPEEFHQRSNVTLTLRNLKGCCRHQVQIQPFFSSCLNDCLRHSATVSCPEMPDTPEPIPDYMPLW
UniProt Q16552, residues 24-155: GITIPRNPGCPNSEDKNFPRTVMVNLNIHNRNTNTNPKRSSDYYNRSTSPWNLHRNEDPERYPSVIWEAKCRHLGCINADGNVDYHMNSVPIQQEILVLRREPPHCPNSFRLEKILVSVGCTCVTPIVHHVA

binding: binds
Substance: Biotinylated Bap-tagged human IL-17A (from UniProt Q16552 24-155) (ligand)

From PMC4985813, “Binding site elucidation and structure guided design of macrocyclic IL-17A antagonists” (Scientific Reports, 2016)
